Test results as given in US8598176B2, “Pyridazine compound and use thereof” (Sumitomo Chemical Company, Limited, priority 2005, dated 2013).
Some results were stated once for a whole list of compounds, not compound by compound.

System: Alternaria brassicicola
Test: Test Example 1: foliar spray on Japanese radish, inoculation with spores of Alternaria brassicicola
Assay type: in vivo
Conditions: 500 ppm, formulation per Formulation Example 6, Japanese radish (WASE 40 days), sprayed before inoculation, overnight at 23° C. humid then 3 days in greenhouse

Cc1nnc(Cl)c(-c2ncccc2Cl)c1-c1ccc(Cl)cc1 [compound (5), 3-chloro-5-(4-chlorophenyl)-4-(3-chloro-2-pyridyl)-6-methylpyridazine]
lesion area on radish with respect to the lesion area on non-treated districts: ≤ 30%

Cc1nnc(Cl)c(-c2ncccn2)c1-c1ccc(Cl)cc1 [compound (6), 3-chloro-5-(4-chlorophenyl)-6-methyl-4-(2-pyrimidinyl)pyridazine]
lesion area on radish with respect to the lesion area on non-treated districts: ≤ 30%
